PubChem BioAssay AID1224830, NIAID | 2016
Test: 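Genes whose knock-down alters the TNF-alpha reporter response to LPS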 (primary screen). System: human THP-1 monocytic leukaemia cells, TNF dual-luciferase reporter clone, PMA-differentiated to macrophage-like cells. Reagents: siRNA pool against human genes, 50 nM. Time to read-out: LPS for 4 h, given about 3 days after siRNA transfection. Conditions: bacterial LPS (TLR4 ligand), 10 ng/ml. Read-out: 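Ratio of firefly to renilla light, scaled to the plate median and expressed as a robust z-score per replicate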. Scale: TNF reporter robust z-score: higher = stronger TNF reporter response to LPS. Rule for the call: 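Each well counts as active if its z-score is over 2.8 or under -1.5; controls are left without a call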.
Here is one part, drawn at random, of about 18,000 deposited reagents. About 2,900 of them (16%) count as active. 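Calls are made per well; low scores hint the gene aids the LPS response, high scores that it dampens it.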 Repeated entries: four replicate wells of each siRNA pool.

SLC25A29 [SID315461572] scored TNF reporter robust z-score -0.28; inactive.
Knock-down of SLC25A29 [SID315461572] came out at: TNF reporter robust z-score 0.3; inactive.
Knock-down of SLC25A29 [SID315461572] resulted in: TNF reporter robust z-score -0.47; inactive.
Depletion of SLC25A29 [SID315461572] resulted in: TNF reporter robust z-score 0.2; inactive.
Silencing of MYLK2 [SID315460671] resulted in: TNF reporter robust z-score -1.94; active.
Against MYLK2 [SID315460671], the values are TNF reporter robust z-score -0.4; inactive.
For MYLK2 [SID315460671] the deposit lists TNF reporter robust z-score -0.1; inactive.
Depletion of MYLK2 [SID315460671] resulted in: TNF reporter robust z-score -1.26; inactive.
For NRBF2 [SID315456261], the entry reads TNF reporter robust z-score -0.61; inactive.
Against NRBF2 [SID315456261], the entry reads TNF reporter robust z-score 0.79; inactive.
Knock-down of NRBF2 [SID315456261] gave: TNF reporter robust z-score 1.39; inactive.
Against NRBF2 [SID315456261] the deposit lists TNF reporter robust z-score -0.62; inactive.
CD164L2 [SID315464505] scored TNF reporter robust z-score 0.72; inactive.
Depletion of CD164L2 [SID315464505] resulted in: TNF reporter robust z-score 0.86; inactive.
Silencing of CD164L2 [SID315464505] came out at: TNF reporter robust z-score 2.4; inactive.
Silencing of CD164L2 [SID315464505] gave: TNF reporter robust z-score 2.88; active.
Against SUGT1P4-STRA6LP-CCDC180 [SID315458526] the deposit lists TNF reporter robust z-score -0.37; inactive.
SUGT1P4-STRA6LP-CCDC180 [SID315458526] scored TNF reporter robust z-score -0.01; inactive.
Against SUGT1P4-STRA6LP-CCDC180 [SID315458526] the deposit lists TNF reporter robust z-score 0.04; inactive.
With knock-down of SUGT1P4-STRA6LP-CCDC180 [SID315458526] the results were TNF reporter robust z-score 2.54; inactive.
